PubChem BioAssay AID1224830, NIAID – 2016

Screen: 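Host factors that control LPS-induced TNF expression in human macrophages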 (primary screen)
System: human THP-1 monocytic leukaemia cells, TNF dual-luciferase reporter clone, PMA-differentiated to macrophage-like cells
Reagent: siRNA pool against human genes, 50 nM
Time to read-out: LPS for 4 h, given about 3 days after siRNA transfection
Challenge: bacterial LPS (TLR4 ligand), 10 ng/ml
Measurement: 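TNF firefly reporter luminescence divided by renilla, normalised to the plate median, then turned into a robust z-score for each replicate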
Direction: TNF reporter robust z-score: higher = stronger TNF reporter response to LPS
Active means: 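a well is active when its z-score exceeds 2.8 or falls below -1.5; control wells carry no call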
Shown is an unselected part of about 18,000 reagents. Over the whole deposit, about 2,900 (16%) got an active call. 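Calls are made per well; low scores hint the gene aids the LPS response, high scores that it dampens it.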 Unmarked entries are inactive. Repeated entries: four replicate wells of each siRNA pool.

EXOC5 (GeneID 10640)
- TNF reporter robust z-score: -0.6

EXOC5 (GeneID 10640)
- TNF reporter robust z-score: -0.48

EXOC5 (GeneID 10640)
- TNF reporter robust z-score: -0.98

EXOC5 (GeneID 10640)
- TNF reporter robust z-score: -0.14

RPS9 (GeneID 6203)
- TNF reporter robust z-score: -0.31

RPS9 (GeneID 6203)
- TNF reporter robust z-score: -0.16

RPS9 (GeneID 6203)
- TNF reporter robust z-score: -0.44

RPS9 (GeneID 6203)
- TNF reporter robust z-score: 0.41

GNAL (GeneID 2774)
- TNF reporter robust z-score: 1.01

GNAL (GeneID 2774)
- TNF reporter robust z-score: 1.15

GNAL (GeneID 2774)
- TNF reporter robust z-score: 1.73

GNAL (GeneID 2774)
- TNF reporter robust z-score: 1.41

ESF1 (GeneID 51575)
- TNF reporter robust z-score: -0.48

ESF1 (GeneID 51575)
- TNF reporter robust z-score: 0.81

ESF1 (GeneID 51575)
- TNF reporter robust z-score: -0.02

ESF1 (GeneID 51575)
- TNF reporter robust z-score: 1.15

Entries above whose target name begins with G or g:
GNAL (GeneID 2774)
- TNF reporter robust z-score: 1.01

GNAL (GeneID 2774)
- TNF reporter robust z-score: 1.15

GNAL (GeneID 2774)
- TNF reporter robust z-score: 1.73

GNAL (GeneID 2774)
- TNF reporter robust z-score: 1.41

The listing continues.
CCDC83 (GeneID 220047)
- TNF reporter robust z-score: 0.61

CCDC83 (GeneID 220047)
- TNF reporter robust z-score: 0.28

CCDC83 (GeneID 220047)
- TNF reporter robust z-score: -0.77

CCDC83 (GeneID 220047)
- TNF reporter robust z-score: 0.97

GMPPB (GeneID 29925)
- TNF reporter robust z-score: 1.2

GMPPB (GeneID 29925)
- TNF reporter robust z-score: 0.81

GMPPB (GeneID 29925)
- TNF reporter robust z-score: 1.58

GMPPB (GeneID 29925)
- TNF reporter robust z-score: 1

PASK (GeneID 23178)
- TNF reporter robust z-score: -1.03

PASK (GeneID 23178)
- TNF reporter robust z-score: 0.16

PASK (GeneID 23178)
- TNF reporter robust z-score: -0.2

PASK (GeneID 23178)
- TNF reporter robust z-score: 0.75

NUMA1 (GeneID 4926)
- TNF reporter robust z-score: -0.45

NUMA1 (GeneID 4926)
- TNF reporter robust z-score: -0.38

NUMA1 (GeneID 4926)
- TNF reporter robust z-score: -0.67

NUMA1 (GeneID 4926)
- TNF reporter robust z-score: -1.29

MAGEA2B (GeneID 266740)
- TNF reporter robust z-score: -0.78

MAGEA2B (GeneID 266740)
- TNF reporter robust z-score: -0.4

MAGEA2B (GeneID 266740)
- TNF reporter robust z-score: 0.28

MAGEA2B (GeneID 266740)
- TNF reporter robust z-score: 0.5

FBN2 (GeneID 2201)
- TNF reporter robust z-score: 1.51

FBN2 (GeneID 2201)
- TNF reporter robust z-score: 1.56

FBN2 (GeneID 2201)
- TNF reporter robust z-score: 1.28

FBN2 (GeneID 2201)
- TNF reporter robust z-score: 1.2

MEOX1 (GeneID 4222)
- TNF reporter robust z-score: 0.77

MEOX1 (GeneID 4222)
- TNF reporter robust z-score: 2.45

MEOX1 (GeneID 4222)
- TNF reporter robust z-score: 0.33

MEOX1 (GeneID 4222)
- TNF reporter robust z-score: 1.15

WIPF3 (GeneID 644150)
- TNF reporter robust z-score: -0.31

WIPF3 (GeneID 644150)
- TNF reporter robust z-score: 0.08

WIPF3 (GeneID 644150)
- TNF reporter robust z-score: 0.3

WIPF3 (GeneID 644150)
- TNF reporter robust z-score: 1.17
